The record followed here is BindingDB's records for doi:10.1124/mol.64.6.1295 (Glaxosmithkline, 2003).

Amino acid sequences for entries named in this document (tags omitted).
UniProt P50406, whole entry: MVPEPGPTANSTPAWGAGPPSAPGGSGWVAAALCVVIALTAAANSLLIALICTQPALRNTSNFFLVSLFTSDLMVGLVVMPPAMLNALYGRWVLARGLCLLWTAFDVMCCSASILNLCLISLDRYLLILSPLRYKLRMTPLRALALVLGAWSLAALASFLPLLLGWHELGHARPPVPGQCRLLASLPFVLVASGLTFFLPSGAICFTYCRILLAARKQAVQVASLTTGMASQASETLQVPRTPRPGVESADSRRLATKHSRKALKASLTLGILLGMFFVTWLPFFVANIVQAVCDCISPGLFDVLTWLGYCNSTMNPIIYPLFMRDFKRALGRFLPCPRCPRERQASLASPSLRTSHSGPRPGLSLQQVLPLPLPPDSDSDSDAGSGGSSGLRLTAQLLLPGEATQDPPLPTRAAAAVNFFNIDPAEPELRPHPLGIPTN

This experiment has as its target 5-hydroxytryptamine receptor 6 (Homo sapiens, UniProt P50406).

`COc1ccc(NS(=O)(=O)c2ccc(I)cc2)cc1N1CCN(C)CC1` [SB-258585] came in with a Ki of 1.82 nM.

As a reminder, the Ki is the dissociation constant of the complex between target and ligand, obtained from inhibition or displacement. Read a high Ki as a looser hold on the target.
